# Results deposited as PubChem BioAssay AID1508588 (Peter MacCallum Cancer Centre, 2020).
# Assay: 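Knock-downs boosting vemurafenib effects on melanoma cell growth or lactate release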 (primary screen)
# Cells: human WM266.4 melanoma cells (BRAF V600 mutant)
# Knock-down reagent: siRNA pool against human genes, 40 nM
# Time to read-out: 96 h from transfection to read-out
# Challenge: vemurafenib 300 nM (about IC25), added 48 h after transfection, for 48 h; comparison arm got DMSO vehicle only
# Measurement: 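Cell gain (DAPI nuclei at end minus before drug, mean of two replicates) and medium lactate by absorbance per cell, both as ratio to non-targeting siRNA, also grouped into fold-change classes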
# Reading the numbers: cell gain with vemurafenib: higher = more cell gain than with non-targeting siRNA; lactate per cell with vemurafenib: higher = more lactate made per cell
# Call rule: 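a knock-down counts as enhancing when its fold-change classes with vehicle and with vemurafenib, taken together, show a stronger drug effect on cell gain or lactate per cell; exact class pairs not stated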
# Meaning of the calls: active = enhances vemurafenib effect; inactive = no enhancement seen
# The whole screen tested about 18,000 reagents; below is an unselected part. In the full data, 790 (4.4%) are marked active. 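Calls rest on a combination of fold-change classes in drug and vehicle arms, not all shown here.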 Some reagents were tested in more than one well and are listed for each.
gene knocked down,cell gain with vemurafenib,lactate per cell with vemurafenib,Outcome
CBLN2 (cerebellin 2 precursor),0,0.74,inactive
PERP (p53 apoptosis effector related to PMP22),0.25,0.84,inactive
KERA (keratocan),0.21,1.24,inactive
LONRF1 (LON peptidase N-terminal domain and ring finger 1),0.88,1.1,inactive
C10orf71 (chromosome 10 open reading frame 71),0.52,1.19,inactive
FPR3 (formyl peptide receptor 3),0.73,1.06,inactive
SLC12A4,0.88,0.46,inactive
KIAA1958,0.59,1.97,inactive
DHRS3 (dehydrogenase/reductase 3),0.3,0.97,inactive
ZNF597 (zinc finger protein 597),0.18,0.4,active
PXDC1 (PX domain containing 1),0.97,1.31,inactive
PIANP (PILR alpha associated neural protein),0.41,1.39,inactive
KCNA2 (potassium voltage-gated channel subfamily A member 2),0.82,0.56,inactive
AMMECR1 (AMMECR nuclear protein 1),0.66,0.91,inactive
SLC6A5,0.43,0.83,inactive
NEGR1 (neuronal growth regulator 1),0.86,1.16,inactive
CCDC82 (coiled-coil domain containing 82),-0.06,0.6,inactive
MPP7 (MAGUK p55 scaffold protein 7),0.56,1.79,inactive
GOSR2 (golgi SNAP receptor complex member 2),0.34,0.77,inactive

Active calls, of those listed so far:
gene knocked down,cell gain with vemurafenib,lactate per cell with vemurafenib,Outcome
ZNF597 (zinc finger protein 597),0.18,0.4,active

Continued.
gene knocked down,cell gain with vemurafenib,lactate per cell with vemurafenib,Outcome
WDPCP (WD repeat containing planar cell polarity effector),0.74,1.52,inactive
CALCR (calcitonin receptor),0.8,0.64,inactive
KDR (kinase insert domain receptor),0.6,0.73,inactive
TOGARAM1 (TOG array regulator of axonemal microtubules 1),0.44,0.81,inactive
SLC35E3,0.78,0.7,inactive
"MUC2 (mucin 2, oligomeric mucus/gel-forming)",0.71,0.25,inactive
DCTPP1 (dCTP pyrophosphatase 1),0.51,0.94,inactive
VCX3B (variable charge X-linked 3B),0.04,0,active
RSPH6A (radial spoke head 6 homolog A),0.36,1.3,inactive
FLNA (filamin A),0.64,0.78,inactive
GOLIM4 (golgi integral membrane protein 4),0.87,1,inactive
DHX15 (DEAH-box helicase 15),0.61,0.66,inactive
PRMT1 (protein arginine methyltransferase 1),0.49,0.82,inactive
PRR21 (proline rich 21),0.8,0.63,inactive
"PFKFB2 (6-phosphofructo-2-kinase/fructose-2,6-biphosphatase 2)",0.53,1.29,inactive
"PFKFB2 (6-phosphofructo-2-kinase/fructose-2,6-biphosphatase 2)",0.43,1.62,inactive
